For at least one compound, name, drawing or mass did not settle the structure.
What was measured:
[1] = Physical and chemical stability of I-2 solutions at room temperature; type: physicochemical; details: for API % (w/v) at t = tfinal: room temperature, filtrate; for API % peak area at t = tfinal: unfiltered, HPLC
Description: Solutions of I-2 were formulated with F127 or Tween 80, and under a range of pH values. Briefly, I-2 was first completely solubilized using an acidic solution (0.1 N HCl) at a high concentration of […]. The final formulation was diluted to a solution consisting of 0.5% (w/v) I-2 into buffered solution containing F127 or Tween 80 as described in Table 5. Following dilution, the pH of the formulations was measured using pH indicator strips (PEHANON) and confirmed to be within expected range (±0.5 units of target pH).
Physical and chemical stability of the solutions at room temperature (20-25° C.) were assessed after 7-10 days (tfinal). Physical instability in a solution can manifest as the precipitation and sedimentation of the drug of interest and excipients over time. To assess physical stability, the formulations at tfinal were first filtered through a 300 kDa modified polyethersulfone filter membrane (Nanosep) to remove any precipitate in the solution. The concentration of I-2 in the filtrates was then measured and compared to that at t=0. The purity of I-2 in the unfiltered solution was also evaluated at tfinal, to further confirm chemical stability. This parameter is defined by the area under the signal peak that is attributed to compound I-2 as a percentage of all peaks reported by in the sample by HPLC (% peak area).

[2] = Milling with Pluronic F127 into mucus penetrating particles; particle size by dynamic light scattering; type: physicochemical; details: formulated as MPP, milled with Pluronic F127 in DPBS
Source text: Compounds of the present invention synthesized in accordance with the preceding Examples were formulated as mucus penetrating particles (MPP). Specifically, compounds I-2, compound I-5, and compound I-6 were each milled in the presence of Pluronic F127 (F127) to determine whether F127 1) aids particle size reduction to several hundreds of nanometers and 2) physically (non-covalently) coats the surface of generated nanoparticles with a mucoinert coating that would minimize particle interactions with mucus constituents and prevent mucus adhesion.
A milling procedure was employed in which an aqueous dispersion containing coarse drug particles and Pluronic F127 (F127) was milled with grinding medium until particle size was reduced below 400 nm as measured by dynamic light scattering. Table 4 lists the size of particles and polydispersity index (a measure of the width of the particle size distribution) generated using this technique. In this example suspensions were buffered using DPBS (Dulbecco's Phosphate-Buffered Saline) which yields a suspension that is both isotonic and has a physiologically relevant pH.

[3] = F127 (0.5%), 20 mM Borate, target pH 8, tfinal 7 days
[4] = F127 (0.5%), 20 mM Citrate, target pH 6, tfinal 7 days
[5] = F127 (0.5%), 40 mM Borate, target pH 8, tfinal 7 days
[6] = F127 (0.5%), 1x PBS, target pH 7, tfinal 7 days
[7] = Tween 80 (0.5%), 20 mM Citrate, target pH 6, tfinal 10 days

Cc1cc(C(=O)Nc2cc(Oc3ccc4nc(NC(=O)CN5CC[C@H](N(C)C)C5)cn4n3)ccc2C)n(C)n1 [Compound I-2]
API % (w/v) at t = 0 ([1]; F127 (0.5%), 20 mM Borate, target pH 8): 0.54 % (w/v) | % concentration change [1, 3]: −5.6% | API % (w/v) at t = tfinal [1, 3]: 0.51 % (w/v) | API % peak area at t = tfinal [1, 3]: 98.5 % peak area | API % (w/v) at t = 0 ([1]; F127 (0.5%), 20 mM Citrate, target pH 6): 0.52 % (w/v) | % concentration change [1, 4]: −3.8% | API % (w/v) at t = tfinal [1, 4]: 0.50 % (w/v) | API % peak area at t = tfinal [1, 4]: 98.0 % peak area | API % (w/v) at t = 0 ([1]; F127 (0.5%), 20 mM Tris, target pH 8): 0.52 % (w/v) | API % (w/v) at t = 0 ([1]; F127 (0.5%), 40 mM Borate, target pH 8): 0.52 % (w/v) | % concentration change [1, 5]: 0.0% | API % (w/v) at t = tfinal [1, 5]: 0.52 % (w/v) | API % peak area at t = tfinal [1, 5]: 98.5 % peak area | API % (w/v) at t = 0 ([1]; F127 (0.5%), 1x PBS, target pH 7): 0.52 % (w/v) | % concentration change [1, 6]: −1.9% | API % (w/v) at t = tfinal [1, 6]: 0.51 % (w/v) | API % peak area at t = tfinal [1, 6]: 98.3 % peak area | API % (w/v) at t = 0 ([1]; Tween 80 (0.5%), 20 mM Citrate, target pH 6): 0.45 % (w/v) | % concentration change [1, 7]: −2.2% | API % (w/v) at t = tfinal [1, 7]: 0.44 % (w/v) | API % peak area at t = tfinal [1, 7]: 97.1 % peak area | concentration of I-2 after storage relative to original concentration at t=0 ([1]; all solution formulations except 20 mM Tris, 7-10 days storage at room temperature): > 94% | Polydispersity Index (PDI) [2]: 0.292 | Particle Size ([2]; dynamic light scattering): 259 nm
